Assay results taken from PMC5839403.
These are yes or no findings as the source states them, for the method shown. Binding seen in cells or lysates may run through a third protein. Binding can be weak; no strength is given.

Target: T1, VDR (human (endogenous in HL-60)) (UniProt P11473)
T1 sequence: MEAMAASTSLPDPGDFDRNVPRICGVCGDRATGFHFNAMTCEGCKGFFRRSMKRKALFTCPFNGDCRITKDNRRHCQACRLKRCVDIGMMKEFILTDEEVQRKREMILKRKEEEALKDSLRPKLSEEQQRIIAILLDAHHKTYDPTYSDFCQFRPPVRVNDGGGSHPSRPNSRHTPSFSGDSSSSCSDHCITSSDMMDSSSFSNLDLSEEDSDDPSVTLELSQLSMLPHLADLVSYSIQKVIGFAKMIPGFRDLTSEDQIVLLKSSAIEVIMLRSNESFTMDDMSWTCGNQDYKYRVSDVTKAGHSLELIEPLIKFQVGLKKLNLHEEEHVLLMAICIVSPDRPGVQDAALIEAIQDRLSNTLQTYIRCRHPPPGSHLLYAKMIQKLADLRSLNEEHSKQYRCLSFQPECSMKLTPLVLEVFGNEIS
Experiment: co-IP; 250 μg pre-cleared nuclear lysate of HL-60 cells (NE-PER fractionation; untreated, 0.5 μM D3, or D3 plus 10 μM RRD-251, 48 hours) incubated overnight with 3.5 μg precipitating antibody and Protein G magnetic beads, washed 3 times, Western blot

- binding: binds
Substance: glycogen synthase kinase-3 (total GSK-3 α/β) (human (endogenous in HL-60))
